Experimental data taken from article PMC10113886.
No constants are given. Whether binding was seen depends on the method and setting. Binding seen in cells or lysates may run through a third protein. A result given as binding can be weak or reduced; the word gives no strength.

Sequences of proteins named here, by UniProt entry; tags and fusion partners are left off. A change or cut given only in a name is not applied to a line headed by its entry.
UniProt Q9W266: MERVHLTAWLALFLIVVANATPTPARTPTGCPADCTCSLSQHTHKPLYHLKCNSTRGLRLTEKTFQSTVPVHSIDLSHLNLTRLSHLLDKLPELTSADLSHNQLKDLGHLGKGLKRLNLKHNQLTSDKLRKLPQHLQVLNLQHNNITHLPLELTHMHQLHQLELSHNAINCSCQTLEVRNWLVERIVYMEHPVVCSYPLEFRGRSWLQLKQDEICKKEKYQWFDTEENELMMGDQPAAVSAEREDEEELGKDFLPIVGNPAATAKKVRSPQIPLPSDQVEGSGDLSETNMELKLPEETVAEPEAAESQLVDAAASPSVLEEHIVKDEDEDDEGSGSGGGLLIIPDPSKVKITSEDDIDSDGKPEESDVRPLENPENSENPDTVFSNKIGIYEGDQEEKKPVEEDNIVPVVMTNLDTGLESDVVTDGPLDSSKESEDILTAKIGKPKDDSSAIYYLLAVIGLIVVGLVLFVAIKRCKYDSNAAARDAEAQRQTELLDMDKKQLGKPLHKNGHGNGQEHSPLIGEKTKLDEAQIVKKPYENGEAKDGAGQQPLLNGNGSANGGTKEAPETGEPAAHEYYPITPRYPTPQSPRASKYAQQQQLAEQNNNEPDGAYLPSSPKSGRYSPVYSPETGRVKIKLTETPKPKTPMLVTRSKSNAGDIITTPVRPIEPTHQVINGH

Target: secreted form (the extracellular domain) of Myc-Wdp (Drosophila) (UniProt Q9W266)
Experiment: co-IP; Wg expressed with or without sec-Myc-Wdp in Dmel2 (S2) cells, 72 h at 25°C; 1 ml conditioned medium incubated with anti-cMyc antibody-agarose beads overnight at 4°C, washed, eluted with 6 M urea, blotted with anti-Wg

binding: binds
B1: Wingless (ligand, UniProt P09615 18-468)
chain: GSSLSQVEGKQKSGRGRGSMWWGIAKVGEPNNITPIMYMDPAIHSTLRRKQRRLVRDNPGVLGALVKGANLAISECQHQFRNRRWNCSTRNFSRGKNLFGKIVDRGCRETSFIYAITSAAVTHSIARACSEGTIESCTCDYSHQSRSPQANHQAGSVAGVRDWEWGGCSDNIGFGFKFSREFVDTGERGRNLREKMNLHNNEAGRAHVQAEMRQECKCHGMSGSCTVKTCWMRLANFRVIGDNLKARFDGATRVQVTNSLRATNALAPVSPNAAGSNSVGSNGLIIPQSGLVYGEEEERMLNDHMPDILLENSHPISKIHHPNMPSPNSLPQAGQRGGRNGRRQGRKHNRYHFQLNPHNPEHKPPGSKDLVYLEPSPSFCEKNLRQGILGTHGRQCNETSLGVDGCGLMCCGRGYRRDEVVVVERCACTFHWCCEVKCKLCRTKKVIYTCL
